Consider 1 molecule from article PMC4423959, “The Nucleoid Occlusion SlmA Protein Accelerates the Disassembly of the FtsZ Protein Polymers without Affecting Their GTPase Activity” (PLoS ONE, 2015).

In assay [1] the target is T1, SlmA·SBS complex (four SlmA monomers, as two dimers, bound to one SBScons DNA) (E. coli) (UniProt P0C093).
T1 sequence: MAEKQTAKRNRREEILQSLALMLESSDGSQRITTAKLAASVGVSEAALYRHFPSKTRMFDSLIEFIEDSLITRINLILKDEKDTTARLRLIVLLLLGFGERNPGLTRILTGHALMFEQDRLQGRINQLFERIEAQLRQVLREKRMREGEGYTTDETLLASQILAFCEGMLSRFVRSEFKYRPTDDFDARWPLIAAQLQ
As to the kind of experiment: SEC-MALS; FtsZ-GDP with SlmA·SBS, 300 mM KCl and neutral pH; data not shown; both purified. (SEC sorts molecules by how far they enter the pores of the column.)

For assay [2], the target named is T1, SlmA·SBS complex (four SlmA monomers, as two dimers, bound to one SBScons DNA) (E. coli). As to the kind of experiment: AUC; sedimentation velocity, 48,000 rpm, 20°C, working buffer (50 mM Tris-HCl, 300 mM KCl, 2 mM MgCl2, pH 7.5); FtsZ-GDP 30 μM total with 6 μM FtsZ-Alexa 488 as tracer, without or with SlmA 15 μM and SBScons 4 μM; both purified.

Results are given in words; binding and its absence hold for the method and conditions named. Some entries that bind do so weakly or less than the wild type.

B1: E. coli FtsZ (natural protein, UniProt P0A9A6 1-383, looked up)
chain: MFEPMELTNDAVIKVIGVGGGGGNAVEHMVRERIEGVEFFAVNTDAQALRKTAVGQTIQIGSGITKGLGAGANPEVGRNAADEDRDALRAALEGADMVFIAAGMGGGTGTGAAPVVAEVAKDLGILTVAVVTKPFNFEGKKRMAFAEQGITELSKHVDSLITIPNDKLLKVLGRGISLLDAFGAANDVLKGAVQGIAELITRPGLMNVDFADVRTVMSEMGYAMMGSGVASGEDRAEEAAEMAISSPLLEDIDLSGARGVLVNITAGFDLRLDEFETVGNTIRAFASDNATVVIGTSLDPDMNDELRVTVVATGIGMDKRPEITLVTNKQVQQPVMDRYQQHGMAPLTQEQKPVAKVVNDNAPQTAKEPDYLDIPAFLRKQAD
notes: Cell division protein FtsZ of E. coli; The nucleotide state (GDP: oligomers); In AUC and FCS a tracer share of FtsZ labelled on amine groups with Alexa Fluor 488 (FtsZ-Alexa 488) was mixed with unlabelled FtsZ; also called FtsZ-GDP; FtsZ-GTP; source: isolated as described elsewhere [40]
B1: the binding result in assay [1] and in assay [2] was “binds” throughout.
